No constants are given. Whether binding was seen depends on the method and setting. In cells and extracts the contact can be indirect. Some binding calls cover weakened binding; strength is not graded here.
What was measured:
[1] = target: endogenous MyD88 (human (endogenous in THP1)) (UniProt Q99836); experiment: co-IP; THP1 cells mock infected or infected with rhMPV-WT or -ΔM2-2, MOI 5, 24 h; lysate IP with anti-MyD88 or isotype control, blot with anti-hMPV antibody
[2] = target: V5-tagged hMPV M2-2 protein (human metapneumovirus (hMPV)) (UniProt Q6WB96); experiment: co-IP; 293 cells cotransfected with HA-MyD88 and V5-M2-2, lysed 30 h after transfection; IP with anti-V5 and blot with anti-HA, and reverse (IP anti-HA, blot anti-V5); protein A/G-agarose, 4°C, washes of different ionic strength (Roche kit)
HA-tagged MyD88 = HA-tagged MyD88 (UniProt Q99836); experiment: as above

By UniProt entry, the sequences of proteins in these tests, tags left out.
UniProt Q99836: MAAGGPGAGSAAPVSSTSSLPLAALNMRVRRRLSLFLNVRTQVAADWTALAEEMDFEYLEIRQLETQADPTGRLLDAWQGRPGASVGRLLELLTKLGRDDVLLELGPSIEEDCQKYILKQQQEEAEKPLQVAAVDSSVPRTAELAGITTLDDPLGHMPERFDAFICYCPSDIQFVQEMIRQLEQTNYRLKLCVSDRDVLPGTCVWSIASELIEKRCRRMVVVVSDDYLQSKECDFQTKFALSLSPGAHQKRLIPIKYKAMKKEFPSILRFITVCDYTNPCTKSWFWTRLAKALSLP
UniProt Q6WB96: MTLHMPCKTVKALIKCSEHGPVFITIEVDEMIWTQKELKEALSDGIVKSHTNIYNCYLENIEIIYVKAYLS

**Q.** With “viral M2-2 protein (from rhMPV-WT infection) (from UniProt Q6WB96 1-71)” as the substance, how does the binding [1] read?
**A.** binds

**Q.** For “HA-tagged MyD88 (from UniProt Q99836 1-296)”, which binding [2] is on record?
**A.** binds

**Q.** With “V5-tagged hMPV M2-2 protein (from UniProt Q6WB96 1-71)” as the substance, how does the binding (HA-tagged MyD88) read?
**A.** binds

— article PMC3950292
